Patent US20060058231A1
These are yes or no findings as the source states them, for the method shown. Some binding calls cover weakened binding; strength is not graded here. For some of these results: Where a sequence is shown, tags or fusion partners need not be part of it.

Sequences of proteins named here, by UniProt entry; tags and fusion partners are left off. Residues count along the entry.
UniProt P27037, residues 20-134: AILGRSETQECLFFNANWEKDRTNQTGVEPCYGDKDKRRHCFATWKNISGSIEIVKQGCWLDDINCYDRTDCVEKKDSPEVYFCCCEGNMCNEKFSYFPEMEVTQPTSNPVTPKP
UniProt P36894, residues 24-152: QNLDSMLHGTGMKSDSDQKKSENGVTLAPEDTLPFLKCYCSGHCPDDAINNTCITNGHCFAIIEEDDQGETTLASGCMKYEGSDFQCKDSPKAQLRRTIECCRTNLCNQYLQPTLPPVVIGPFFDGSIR

Tests used:
[1] = molecular target: T1, BMPRIb receptor/Fc fusion (R&D Systems) (UniProt O00238); assay: plate direct binding assay, BMP-7 from conditioned medium captured by anti-BMP-7 antibody, receptor-Fc titrated in 12 points; EC50 drawn as a bar, no number given
T1 sequence (looked up): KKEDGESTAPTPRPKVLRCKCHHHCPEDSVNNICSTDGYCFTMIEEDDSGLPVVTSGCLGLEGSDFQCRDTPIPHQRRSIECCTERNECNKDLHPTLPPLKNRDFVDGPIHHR

[2] = molecular target: ActRIIa receptor/Fc fusion (R&D Systems) (UniProt P27037); assay: as above
[3] = molecular target: T2, BMPRII receptor/Fc fusion (R&D Systems) (UniProt Q13873); assay: as above
T2 sequence (looked up): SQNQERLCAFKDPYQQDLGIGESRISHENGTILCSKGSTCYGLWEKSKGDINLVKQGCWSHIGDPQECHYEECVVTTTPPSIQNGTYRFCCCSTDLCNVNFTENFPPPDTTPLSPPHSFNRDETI

[4] = molecular target: BMPRIa receptor/Fc fusion (R&D Systems) (UniProt P36894); assay: as above
[5] = molecular target: ActRIIa receptor/Fc fusion (R&D Systems) (UniProt P27037); assay: fluorescence anisotropy, labeled BMP-7 added to serial dilutions of receptor/Fc fusion (x axis [receptor] uM)
[6] = molecular target: BMPRIa receptor/Fc fusion (R&D Systems) (UniProt P36894); assay: as above
[7] = molecular target: T3, ActRIIb receptor/Fc fusion (R&D Systems) (UniProt Q13705); assay: as above
T3 sequence (looked up): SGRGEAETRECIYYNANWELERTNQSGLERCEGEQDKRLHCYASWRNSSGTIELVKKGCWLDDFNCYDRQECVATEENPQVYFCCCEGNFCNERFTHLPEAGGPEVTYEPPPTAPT

Measured: binding

B1: Y78H/R134S (ligand)
BMP-7 mature domain: STGGKQRSQNRSKTPKNQEALRMASVAENSSSDQRQACKKHELYVSFRDLGWQDWIIAPEGYAAYYCEGECAFPLNSHMNATNHAIVQTLVHFINPETVPKPCCAPTQLNAISVLYFDDSSNVILKKYRNMVVSACGCH
binds: [1] | [2] | [3] | [4]

B2: Y78H/R134E (ligand)
BMP-7 mature domain: STGGKQRSQNRSKTPKNQEALRMASVAENSSSDQRQACKKHELYVSFRDLGWQDWIIAPEGYAAYYCEGECAFPLNSHMNATNHAIVQTLVHFINPETVPKPCCAPTQLNAISVLYFDDSSNVILKKYRNMVVEACGCH
binds: [1] | [2] | [3] | [4]

B3: F93H/H139R (ligand)
BMP-7 mature domain: STGGKQRSQNRSKTPKNQEALRMASVAENSSSDQRQACKKHELYVSFRDLGWQDWIIAPEGYAAYYCEGECAFPLNSYMNATNHAIVQTLVHHINPETVPKPCCAPTQLNAISVLYFDDSSNVILKKYRNMVVRACGCR
binds: [1] | [2] | [3] | [4]

B4: F93H/K39A (ligand)
BMP-7 mature domain: STGGKQRSQNRSKTPKNQEALRMASVAENSSSDQRQACAKHELYVSFRDLGWQDWIIAPEGYAAYYCEGECAFPLNSYMNATNHAIVQTLVHHINPETVPKPCCAPTQLNAISVLYFDDSSNVILKKYRNMVVRACGCH
binds: [1] | [2] | [3] | [4]

B5: F93H/S120D (ligand)
BMP-7 mature domain: STGGKQRSQNRSKTPKNQEALRMASVAENSSSDQRQACKKHELYVSFRDLGWQDWIIAPEGYAAYYCEGECAFPLNSYMNATNHAIVQTLVHHINPETVPKPCCAPTQLNAISVLYFDDDSNVILKKYRNMVVRACGCH
binds: [1] | [2] | [3] | [4]

B6: Y78H/Q108D (ligand)
BMP-7 mature domain: STGGKQRSQNRSKTPKNQEALRMASVAENSSSDQRQACKKHELYVSFRDLGWQDWIIAPEGYAAYYCEGECAFPLNSHMNATNHAIVQTLVHFINPETVPKPCCAPTDLNAISVLYFDDSSNVILKKYRNMVVRACGCH
binds: [1] | [2] | [3] | [4]

B7: F93H/R134S (ligand)
BMP-7 mature domain: STGGKQRSQNRSKTPKNQEALRMASVAENSSSDQRQACKKHELYVSFRDLGWQDWIIAPEGYAAYYCEGECAFPLNSYMNATNHAIVQTLVHHINPETVPKPCCAPTQLNAISVLYFDDSSNVILKKYRNMVVSACGCH
binds: [1] | [2] | [3] | [4]

B8: Y78H/S120D (ligand)
BMP-7 mature domain: STGGKQRSQNRSKTPKNQEALRMASVAENSSSDQRQACKKHELYVSFRDLGWQDWIIAPEGYAAYYCEGECAFPLNSHMNATNHAIVQTLVHFINPETVPKPCCAPTQLNAISVLYFDDDSNVILKKYRNMVVRACGCH
binds: [1] | [2] | [3] | [4]

B9: K39S/S120D (ligand)
BMP-7 mature domain: STGGKQRSQNRSKTPKNQEALRMASVAENSSSDQRQACSKHELYVSFRDLGWQDWIIAPEGYAAYYCEGECAFPLNSYMNATNHAIVQTLVHFINPETVPKPCCAPTQLNAISVLYFDDDSNVILKKYRNMVVRACGCH
binds: [1] | [2] | [3] | [4]

B10: K39S/N110D (ligand)
BMP-7 mature domain: STGGKQRSQNRSKTPKNQEALRMASVAENSSSDQRQACSKHELYVSFRDLGWQDWIIAPEGYAAYYCEGECAFPLNSYMNATNHAIVQTLVHFINPETVPKPCCAPTQLDAISVLYFDDSSNVILKKYRNMVVRACGCH
binds: [1] | [2] | [3] | [4]

B11: Y78H/A135E (ligand)
BMP-7 mature domain: STGGKQRSQNRSKTPKNQEALRMASVAENSSSDQRQACKKHELYVSFRDLGWQDWIIAPEGYAAYYCEGECAFPLNSHMNATNHAIVQTLVHFINPETVPKPCCAPTQLNAISVLYFDDSSNVILKKYRNMVVRECGCH
binds: [1] | [2] | [3] | [4]

B12: Y78H/H139R (ligand)
BMP-7 mature domain: STGGKQRSQNRSKTPKNQEALRMASVAENSSSDQRQACKKHELYVSFRDLGWQDWIIAPEGYAAYYCEGECAFPLNSHMNATNHAIVQTLVHFINPETVPKPCCAPTQLNAISVLYFDDSSNVILKKYRNMVVRACGCR
binds: [1] | [2] | [3] | [4]

B13: Y78H/A135S (ligand)
BMP-7 mature domain: STGGKQRSQNRSKTPKNQEALRMASVAENSSSDQRQACKKHELYVSFRDLGWQDWIIAPEGYAAYYCEGECAFPLNSHMNATNHAIVQTLVHFINPETVPKPCCAPTQLNAISVLYFDDSSNVILKKYRNMVVRSCGCH
binds: [1] | [2] | [3] | [4]

B14: FXS labeled BMP7 (ligand)
BMP-7 mature domain: STGGKQRSQNRSKTPKNQEALRMASVAENSSSDQRQACKKHELYVSFRDLGWQDWIIAPEGYAANYCEGECAFPLNSYMNATNHAIVQTLVHFINPETVPKPCCAPTQLNAISVLYFDDDSNVILKKYRNMVVRACGCH
modifications: labeled with C6-FXS (FITC-derived NHS fluorophore); labeled sites not given
binds: [5] | [6] | [7]
